Data: publication PMC12431861

Target: T1, CCCTC-binding factor (CTCF), immunoprecipitated from ES and NS cell chromatin in ChIP-SICAP (mouse (endogenous in ES and NS cells)), Q61164
T1 chain: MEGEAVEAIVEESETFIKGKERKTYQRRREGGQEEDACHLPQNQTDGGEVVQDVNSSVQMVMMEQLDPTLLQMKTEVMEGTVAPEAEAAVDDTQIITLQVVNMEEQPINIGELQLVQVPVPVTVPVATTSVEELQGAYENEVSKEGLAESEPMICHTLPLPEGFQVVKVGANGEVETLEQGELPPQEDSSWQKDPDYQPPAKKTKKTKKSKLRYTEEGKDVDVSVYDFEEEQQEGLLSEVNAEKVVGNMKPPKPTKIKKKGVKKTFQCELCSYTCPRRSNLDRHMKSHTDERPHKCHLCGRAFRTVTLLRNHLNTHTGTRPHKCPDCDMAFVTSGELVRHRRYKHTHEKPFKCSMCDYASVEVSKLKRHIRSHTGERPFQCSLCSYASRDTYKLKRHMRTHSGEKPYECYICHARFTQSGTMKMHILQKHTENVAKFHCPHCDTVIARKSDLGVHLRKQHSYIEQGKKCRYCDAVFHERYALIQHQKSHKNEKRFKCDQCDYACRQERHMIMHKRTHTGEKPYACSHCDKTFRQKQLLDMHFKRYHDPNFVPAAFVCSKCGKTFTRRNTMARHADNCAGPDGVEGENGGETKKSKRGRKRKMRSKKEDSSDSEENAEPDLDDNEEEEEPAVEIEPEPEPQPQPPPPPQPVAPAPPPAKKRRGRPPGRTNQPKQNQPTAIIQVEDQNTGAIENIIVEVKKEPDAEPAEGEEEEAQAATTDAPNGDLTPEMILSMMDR
Test: affinity purification with mass spectrometry; ChIP-SICAP: ES and NS cells fixed with 1.5% formaldehyde, chromatin sonicated, immunoprecipitated with anti-CTCF (D31H2), DNA biotinylated by TdT, eluted and recaptured on streptavidin beads, on-bead digestion, Orbitrap MS; abundances normalised to CTCF
Details: remark: other sources report otherwise

- binding: binds
B1: Pds5b, Q4VA53 1-1446 (protein)
chain: MAHSKTRTNDGKITYPPGVKEISDKISKEEMVRRLKMVVKTFMDMDQDSEEEKELYLNLALHLASDFFLKHPDKDVRLLVACCLADIFRIYAPEAPYTSPDKLKDIFMFITRQLKGLEDTKSPQFNRYFYLLENIAWVKSYNICFELEDSNEIFTQLYRTLFSVINNGHNQKVHMHMVDLMSSIICEGDTVSQELLDTVLVNLVPAHKNLNKQAYDLAKALLKRTAQAIEPYITNFFNQVLMLGKTSISDLSEHVFDLILELYNIDSHLLLSVLPQLEFKLKSNDNEERLQVVKLLAKMFGAKDSELASQNKPLWQCYLGRFNDIHVPIRLECVKFASHCLMNHPDLAKDLTEYLKVRSHDPEEAIRHDVIVSIVTAAKKDILLVNDHLLNFVRERTLDKRWRVRKEAMMGLAQIYKKYSLQSAAGKDAAKQISWVKDKLLHIYYQNSIDDRLLVERIFAQYMVPHNLETTERMKCLYYLYATLDLNAVKALNEMWKCQNLLRHQVKDLLDLIKQPKTDASVKAIFSKVMVITRNLPDPGKAQDFMKKFTQVLEDDEKIRKQLEALVSPTCSCKQAEGCVREITKKLGNPKQPTNPFLEMIKFLLERIAPVHIDTESISALIKQVNKSIDGTADDEDEGVPTDQAIRAGLELLKVLSFTHPISFHSAETFESLLACLKMDDEKVAEAALQIFKNTGSKIEEDFPHIRSALLPVLHHKSKKGPPRQAKYAIHCIHAIFSSKETQFAQIFEPLHKSLDPSNLEHLITPLVTIGHIALLAPDQFAAPLKSLVATFIVKDLLMNDRLPGKKTTKLWVPDEEVSPETMVKIQAIKMMVRWLLGMKNNHSKSGTSTLRLLTTILHSDGDLTEQGKISKPDMSRLRLAAGSAIVKLAQEPCYHEIITLEQYQLCALAINDECYQVRQVFAQKLHKGLSRLRLPLEYMAICALCAKDPVKERRAHARQCLVKNITVRREYLKQHAAVSEKLLSLLPEYVVPYTIHLLAHDPDYVKVQDIEQLKDVKECLWFVLEILMAKNENNSHAFIRKMVENIKQTKDAQGPDDTKMNEKLYTVCDVAMNIIMSKSTTYSLESPKDPVLPARFFTQPDKNFSNTKNYLPPEMKSFFTPGKPKTANVLGAVNKPLSSAGKQSQTKSSRMETVSNASSSSNPSSPGRIKGRLDSSEMDHSENEDYTMSSPLPGKKSDKREDPDLSELEKPRSRKKAPVTDPEEKLGMDDLTKLVQEQKPKGSQRGRKRGRTASDSDEQQWPEEKRHKEELLENEDEQNSPPKKGKRGRPPKPLGGGTSKEEPTMKTSKKGNKKKLVPPVVDDDEEEERQIGNTEHKSKSKQHRTSKRAQQRAESPETSAVESTQSTPQKGRGRPSKAPSPSQPPKKIRVGRSKQVATKENDSSEEMDVLQASSPVSDDTTQEGAEEEDISVGNVRRRSSKRERR

Results are given in words; binding and its absence hold for the method and conditions named. In cells and extracts the contact can be indirect. Here binding means that the protein was enriched with, or labelled near, the bait; the list need not be complete.
